Tests used:
C57BL/6J mice = conditions: both, mouse, in vivo
CCD-18Co cells = experiment: RT-PCR of α-SMA (ACTA2) expression in activated CCD-18Co cells; assay type: cell-based, human
Description: RNA was extracted using TRIzol Reagent as previously described. Li et al., 2017. RNAs were reverse transcribed into cDNA with ReverAid First Strand cDNA synthesis kit. SYBR Green PCR Master Mix kit was utilized for the real time PCR using a QuantStudio 3 PCR machine (Applied Biosystems, Waltham, MA). Primers used are detailed in Table 6. Each reaction was performed in triplicate for each primer with a no-template negative control. QuantStudio Design and Analysis Software 1.5.2 was used to analyze the data using the ΔΔCT method.

[1] = of a 9 g dose (two 4.5 g doses 12 h apart), topical; cited from earlier work
P450 enzymes = conditions: human lymphoblastoid and liver cells; cited from earlier work

Structure (SMILES): Clc1ccc(CSC(Cn2ccnc2)c2ccc(Cl)cc2Cl)cc1 (stereo not shown) [sulconazole]
- time to death of mice that did not survive (C57BL/6J mice): 1 to 4 days
- lowest concentration that significantly reduced ACTA2 expression (CCD-18Co cells): 1 µM
- systemic absorption of topically applied drug [1]: 8.7-11.3%
- inhibition of P450 enzymes (P450 enzymes): non-specific inhibition
